From paper PMC9000022
These are yes or no findings as the source states them, for the method shown. For some assays here: Binding seen in cells or lysates may run through a third protein. Some binding calls cover weakened binding; strength is not graded here.

Sequences of proteins named here, by UniProt entry; tags and fusion partners are left off.
UniProt O75821: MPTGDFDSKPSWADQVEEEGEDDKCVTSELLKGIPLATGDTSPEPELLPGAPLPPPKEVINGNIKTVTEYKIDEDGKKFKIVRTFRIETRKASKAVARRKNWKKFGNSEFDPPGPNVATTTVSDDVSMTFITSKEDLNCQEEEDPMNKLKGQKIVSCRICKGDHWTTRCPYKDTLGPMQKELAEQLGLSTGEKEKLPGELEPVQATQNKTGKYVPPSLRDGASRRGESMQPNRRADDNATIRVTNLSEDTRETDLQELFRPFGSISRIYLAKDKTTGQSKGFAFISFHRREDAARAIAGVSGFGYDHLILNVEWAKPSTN

Assays:
[1] = target: T1, chaperonin-containing T-complex protein-1 subunit 3 (CCT3) (human (endogenous in LUAD cell lines)) (UniProt P49368); test: co-IP; LUAD cells lysed, incubated overnight at 4 °C with anti-CCT3 or EIF3G antibodies, then protein A-agarose 4 h at 4 °C; Western blot
T1 sequence: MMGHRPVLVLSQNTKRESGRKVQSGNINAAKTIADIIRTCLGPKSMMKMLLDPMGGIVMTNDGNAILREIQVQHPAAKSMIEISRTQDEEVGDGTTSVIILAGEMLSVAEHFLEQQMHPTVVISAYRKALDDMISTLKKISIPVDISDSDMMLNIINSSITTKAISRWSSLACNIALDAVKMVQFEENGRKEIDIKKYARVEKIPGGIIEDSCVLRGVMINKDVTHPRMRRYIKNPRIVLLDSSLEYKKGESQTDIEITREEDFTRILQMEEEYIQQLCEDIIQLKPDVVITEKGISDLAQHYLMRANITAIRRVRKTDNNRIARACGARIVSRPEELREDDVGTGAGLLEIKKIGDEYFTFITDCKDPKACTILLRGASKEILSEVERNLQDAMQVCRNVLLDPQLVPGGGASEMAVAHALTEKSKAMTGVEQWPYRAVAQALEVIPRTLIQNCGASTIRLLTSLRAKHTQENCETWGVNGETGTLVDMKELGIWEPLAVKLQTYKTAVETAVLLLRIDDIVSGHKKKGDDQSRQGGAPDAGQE

recombinant CCT3 (rCCT3) = target: T2, recombinant CCT3 (rCCT3) (UniProt P49368); test: pull-down; rEIF3G and rCCT3 each covalently coupled to cyanogen bromide-activated matrix, blocked with glycine, incubated with rCCT3 or rEIF3G overnight at 4 °C; Western blot; both purified
T2 sequence: T1 sequence

binding [1]	binding (recombinant CCT3 (rCCT3))	Substance
binds		eukaryotic translation initiation factor 3 subunit G (EIF3G) (from UniProt O75821 1-320)
	binds	recombinant EIF3G (rEIF3G) (from UniProt O75821 1-320)
